Data on 1 molecule can be found in article PMC6014982.

Sequences of proteins named here, by UniProt entry; tags and fusion partners are left off. Residues count along the entry.
UniProt P18910, residues 29-1057: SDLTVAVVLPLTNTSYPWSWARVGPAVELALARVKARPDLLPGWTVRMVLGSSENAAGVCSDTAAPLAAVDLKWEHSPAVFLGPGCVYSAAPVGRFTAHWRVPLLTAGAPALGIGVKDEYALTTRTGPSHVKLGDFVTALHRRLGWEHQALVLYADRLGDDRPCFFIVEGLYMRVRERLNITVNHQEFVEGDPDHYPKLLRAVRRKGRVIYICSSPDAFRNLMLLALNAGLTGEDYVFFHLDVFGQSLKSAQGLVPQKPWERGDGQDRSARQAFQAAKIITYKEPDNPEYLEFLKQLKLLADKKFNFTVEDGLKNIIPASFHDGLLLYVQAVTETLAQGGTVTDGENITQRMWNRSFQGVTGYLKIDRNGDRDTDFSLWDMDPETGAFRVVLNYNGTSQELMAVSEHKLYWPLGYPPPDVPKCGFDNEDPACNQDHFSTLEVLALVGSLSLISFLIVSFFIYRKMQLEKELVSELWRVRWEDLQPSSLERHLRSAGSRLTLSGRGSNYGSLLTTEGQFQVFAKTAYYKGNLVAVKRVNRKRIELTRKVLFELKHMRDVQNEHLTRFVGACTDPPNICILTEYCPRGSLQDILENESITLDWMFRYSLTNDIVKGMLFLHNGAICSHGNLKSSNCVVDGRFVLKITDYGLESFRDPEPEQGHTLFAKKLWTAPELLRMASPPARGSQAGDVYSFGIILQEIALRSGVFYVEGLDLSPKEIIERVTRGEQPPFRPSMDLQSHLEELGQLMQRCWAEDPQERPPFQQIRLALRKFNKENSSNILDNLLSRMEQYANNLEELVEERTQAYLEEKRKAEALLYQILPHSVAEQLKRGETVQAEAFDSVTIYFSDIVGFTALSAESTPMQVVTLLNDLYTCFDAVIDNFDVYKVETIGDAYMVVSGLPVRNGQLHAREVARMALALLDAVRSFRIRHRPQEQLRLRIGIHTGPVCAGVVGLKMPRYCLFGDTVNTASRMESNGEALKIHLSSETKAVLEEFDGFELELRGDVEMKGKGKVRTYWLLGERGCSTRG

The assay concerns the target FLAG-tagged NPR1 (natriuretic peptide receptor 1) (UniProt P18910). In words: co-IP; HEK293A cells transfected with mouse PDE2A3 and/or FLAG-NPR1; lysis in 20 mM Tris, 1% triton, 120 mM NaCl, 2 mM EDTA, 2 mM EGTA; lysate incubated with anti-FLAG or anti-PDE2A3 antibody at 4 °C overnight; Protein A/G agarose; immunoblotting.

Results are given in words; binding and its absence hold for the method and conditions named. In cells and extracts the contact can be indirect.

B1: mouse PDE2A3 (phosphodiesterase 2) (enzyme, UniProt Q922S4-1 1-939)
chain: MGQACGHSILCRSQQYPAARPAEPRGQQVFLKPDEPPPQPCADSLQDALLSLGAVIDIAGLRQAARDALSAVLPKVETVYTYLLDGESRLVCEDPPHELPQEGKIREAVISQKRLSCNGLGPSDLLGKPLARLVAPLAPDMQVLVIPLLDKETGSVAAVILVHCGQLSDSEEQSLQVVEKHALVALRRVQALQQRRPEAVQNTSVDASEDQKDEKGYTDHDRKILQLCGELFDLDATSLQLKVLQYLQQETQATHCCLLLVSEDNLQLSCKVIGDKVLGEEVSFPLTMGRLGQVVEDKQCIQLKDLTSDDVQQLQNMLGCELQAMLCVPVISRATDQVVALACAFNKLGGDFPTSSFTDEDEHVIQHCFHYTGTVLTSTLAFQKEQKLKCECQALLQVAKNLFTHLDDVSVLLQEIITEARNLSNAEICSVFLLDQNELVAKVFDGGVVDDESYEIRIPADQGIAGHVATTGQILNIPDAYAHPLFYRGVDDSTGFRTRNILCFPIKNENQEVIGVAELVNKINGPWFSKFDEDLATAFSIYCGISIAHSLLYKKVNEAQYRSHLANEMMMYHMKVSDDEYTKLLHDGIQPVAAIDSNFANFTYTPRSLPEDDTSMAILSMLQDMNFINNYKIDCPTLARFCLMVKKGYRDPPYHNWMHAFSVSHFCYLLYKNLELSNYLEDIEIFALFISCMCHDLDHRGTNNSFQVASKSVLAALYSSEGSVMERHHFAQAIAILNTHGCNIFDHFSRKDYQRMLDLMRDIILATDLAHHLRIFKDLQKMAEVGYDRNNRQHHRLLLCLLMTSCDLSDQTKGWKTTRKIAELIYKEFFSQGDLEKAMGNRPMEMMDREKAYIPELQISFMEHIAMPIYKLLQDLFPKAAELYERVASNREHWTKVSHKFTIRGLPSNNSLDFLDEEYEVPDLDGTRAPVNGCCSLEG
Consider B1, for which the binding result is recorded as “no binding”.
